Laboratory results: PubChem BioAssay AID1224828 (NIAID, 2016)
The whole screen tested about 17,000 reagents; this is an unselected part. 762 of them (4.5%) were called active. 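Active calls include both raised and lowered p65 entry, mostly lowered; wells with fewer than 50 cells lack a z-score.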 Raw values are not corrected between plates. The numbers tell different reagents against one gene apart.

Screen: 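Knock-downs that increase or decrease LPS-induced p65 nuclear translocation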 (primary screen)
Cell system: mouse RAW264.7 G9 macrophage reporter cells (GFP-p65, Tnf promoter-mCherry)
Reagents: siRNA pool against mouse genes, 100 nM
Time to read-out: 2 days siRNA transfection, then 40 min LPS before fixation
Challenge: LPS (Salmonella minnesota R595) at 10 ng/ml
Measured: 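Microscopy ratio of nuclear to perinuclear-ring GFP-p65 signal, scaled to the plate median; gene score is the average of two replicate robust z-scores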
Direction: p65 translocation robust z-score: higher = more nuclear NF-kappaB p65 after LPS than the plate median; nuclear/cytoplasmic p65 ratio: higher = more nuclear NF-kappaB p65
Call rule: 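Called active when z exceeds 3.3 or falls under -1.56 (median of Tlr4 controls), giving activity score of at least 50; no calls for control wells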
Calls: active = hit (p65 shift raised or lowered); inactive = no clear change

target gene | pool no. | p65 translocation robust z-score | nuclear/cytoplasmic p65 ratio, rep 1 | nuclear/cytoplasmic p65 ratio, rep 2 | low cell count flag | call
Ndufb4 (GeneID 68194) | 1 | 0.19 | 1.88 | 1.56 | enough cells to score | inactive
Chrna9 (GeneID 231252) | 1 | -1 | 1.33 | 1.25 | enough cells to score | inactive
Ccdc47 (GeneID 67163) | 1 | – | 1.37 | 1.41 | fewer than 50 cells per well; well left out of scoring | inactive
Hscb (GeneID 100900) | 1 | -0.4 | 1.43 | 1.57 | enough cells to score | inactive
Ccnl2 (GeneID 56036) | 1 | -0.43 | 1.59 | 1.65 | enough cells to score | inactive
Mapt (GeneID 17762) | 1 | 0.79 | 1.6 | 1.39 | enough cells to score | inactive
Fgf13 (GeneID 14168) | 1 | -0.1 | 1.36 | 1.41 | enough cells to score | inactive
Egfl8 (GeneID 81701) | 1 | -0.1 | 1.48 | 1.33 | enough cells to score | inactive
Dsc1 (GeneID 13505) | 1 | 0.44 | 1.59 | 1.39 | enough cells to score | inactive
Arv1 (GeneID 68865) | 1 | 2.43 | 1.73 | 1.73 | enough cells to score | inactive
Cep290 (GeneID 216274) | 1 | -0.2 | 1.59 | 1.76 | enough cells to score | inactive
Ctsw (GeneID 13041) | 1 | 0.21 | 1.37 | 1.39 | enough cells to score | inactive
Ppp2r2c (GeneID 269643) | 1 | -0.34 | 1.56 | 1.56 | enough cells to score | inactive
Mga (GeneID 29808) | 1 | -0.91 | 1.55 | 1.44 | enough cells to score | inactive
Vstm2l (GeneID 277432) | 1 | 1.02 | 1.73 | 1.75 | enough cells to score | inactive
Mthfd1l (GeneID 270685) | 1 | 0.29 | 1.65 | 1.49 | enough cells to score | inactive
Tktl1 (GeneID 83553) | 1 | 0.08 | 1.44 | 1.62 | enough cells to score | inactive
Or51f2 (GeneID 259095) | 1 | 0.13 | 1.46 | 1.09 | enough cells to score | inactive
Cebpa (GeneID 12606) | 1 | – | 1.06 | 1.06 | fewer than 50 cells per well; well left out of scoring | inactive
Polg2 (GeneID 50776) | 1 | – | 1.6 | 1.17 | fewer than 50 cells per well; well left out of scoring | inactive
Cd47 (GeneID 16423) | 1 | -0.99 | 1.18 | 1.25 | enough cells to score | inactive
Cd47 (GeneID 16423) | 2 | -1.16 | 1.28 | 1.38 | enough cells to score | inactive
Defb19 (GeneID 246700) | 1 | 1.55 | 1.84 | 1.73 | enough cells to score | inactive
Rdh13 (GeneID 108841) | 1 | -0.09 | 1.35 | 1.26 | enough cells to score | inactive
Cuta (GeneID 67675) | 1 | -0.15 | 1.48 | 1.46 | enough cells to score | inactive
Slc26a11 (GeneID 268512) | 1 | – | 1.34 | 1.9 | fewer than 50 cells per well; well left out of scoring | inactive
Phtf1 (GeneID 18685) | 1 | -0.99 | 1.37 | 1.27 | enough cells to score | inactive
Prelp (GeneID 116847) | 1 | 0.49 | 1.49 | 1.23 | enough cells to score | inactive
Ptpdc1 (GeneID 218232) | 1 | 0.85 | 1.86 | 1.63 | enough cells to score | inactive
Serpinf2 (GeneID 18816) | 1 | 1.4 | 1.66 | 1.85 | enough cells to score | inactive
Vmn1r180 (GeneID 232962) | 1 | 1.19 | 1.24 | 1.36 | enough cells to score | inactive
Manea (GeneID 242362) | 1 | – | 1.12 | 1.47 | fewer than 50 cells per well; well left out of scoring | inactive
Zpbp2 (GeneID 69376) | 1 | -0.42 | 1.34 | 1.37 | enough cells to score | inactive
Vmn1r21 (GeneID 171201) | 1 | – | 1.68 | 1.36 | fewer than 50 cells per well; well left out of scoring | inactive
Gpr27 (GeneID 14761) | 1 | -0.77 | 1.38 | 1.49 | enough cells to score | inactive

Continued, starting with the last 5 of the part before.
target gene | pool no. | p65 translocation robust z-score | nuclear/cytoplasmic p65 ratio, rep 1 | nuclear/cytoplasmic p65 ratio, rep 2 | low cell count flag | call
Vmn1r180 (GeneID 232962) | 1 | 1.19 | 1.24 | 1.36 | enough cells to score | inactive
Manea (GeneID 242362) | 1 | – | 1.12 | 1.47 | fewer than 50 cells per well; well left out of scoring | inactive
Zpbp2 (GeneID 69376) | 1 | -0.42 | 1.34 | 1.37 | enough cells to score | inactive
Vmn1r21 (GeneID 171201) | 1 | – | 1.68 | 1.36 | fewer than 50 cells per well; well left out of scoring | inactive
Gpr27 (GeneID 14761) | 1 | -0.77 | 1.38 | 1.49 | enough cells to score | inactive
Catsper2 (GeneID 212670) | 1 | 0.96 | 1.49 | 1.5 | enough cells to score | inactive
Klrk1 (GeneID 27007) | 1 | – | 1.24 | 1.26 | fewer than 50 cells per well; well left out of scoring | inactive
BC053071 | 1 | -0.36 | 1.38 | 1.48 | enough cells to score | inactive
Cd300a (GeneID 217303) | 1 | -0.12 | 1.63 | 1.45 | enough cells to score | inactive
Suds3 (GeneID 71954) | 1 | – | 1.46 | 1.13 | fewer than 50 cells per well; well left out of scoring | inactive
Rab38 (GeneID 72433) | 1 | -1.98 | 1.24 | 1.18 | enough cells to score | active
Ptov1 (GeneID 84113) | 1 | – | 0 | 1 | fewer than 50 cells per well; well left out of scoring | inactive
Or10n1 (GeneID 258498) | 1 | 0.92 | 1.75 | 1.56 | enough cells to score | inactive
Erbb3 (GeneID 13867) | 1 | 0.73 | 1.88 | 1.42 | enough cells to score | inactive
Oxr1 (GeneID 170719) | 1 | 0.65 | 1.54 | 1.32 | enough cells to score | inactive
Pgp (GeneID 67078) | 1 | 0.55 | 1.46 | 1.5 | enough cells to score | inactive
Ccn4 (GeneID 22402) | 1 | 0.47 | 1.63 | 1.62 | enough cells to score | inactive
Pcna (GeneID 18538) | 1 | -1.42 | 1.31 | 1.18 | enough cells to score | inactive
Patl2 (GeneID 67578) | 1 | 1.69 | 1.46 | 1.33 | enough cells to score | inactive
Flt1 (GeneID 14254) | 1 | 0.37 | 1.74 | 1.44 | enough cells to score | inactive
Pdpn (GeneID 14726) | 1 | -1.17 | 1.45 | 1.23 | enough cells to score | inactive
H3f3a (GeneID 15078) | 1 | 0.93 | 1.86 | 1.61 | enough cells to score | inactive
Or5p59 (GeneID 258730) | 1 | 0.9 | 1.52 | 1.41 | enough cells to score | inactive
Zfp280b (GeneID 64453) | 1 | 1.33 | 1.76 | 2.01 | enough cells to score | inactive
Slc39a8 (GeneID 67547) | 1 | – | 1.77 | 1.14 | fewer than 50 cells per well; well left out of scoring | inactive
Ugt2a3 (GeneID 72094) | 1 | – | 1.48 | 1.28 | fewer than 50 cells per well; well left out of scoring | inactive
Cd200r4 (GeneID 239849) | 1 | -1.4 | 1.42 | 1.25 | enough cells to score | inactive
Or52a33 (GeneID 259087) | 1 | 1.3 | 1.62 | 1.23 | enough cells to score | inactive
Nfasc (GeneID 269116) | 1 | -0.33 | 1.67 | 1.59 | enough cells to score | inactive
